In PubChem BioAssay AID1259415 (National Center for Advancing Translational Sciences (NCATS), 2018):
The whole screen tested about 410,000 compounds, of which about 18,000 (4.4%) were called active. The shares of active, inactive and inconclusive entries below differ from those in the screen. No stated cut-off is given here; in the data, active means activity change below about -60%; inconclusive means no clear call, values can overlap the other calls; inactive means above about -39%.

Test: qHTS Assay for inhibitors of the human cytomegalovirus (HCMV)
Details: HFF cells, HCMV-luciferase reporter, 72 h; at 57.5 µM; hits give low values
Procedure, shortened: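 Human foreskin fibroblasts infected with luciferase-reporter HCMV at MOI 1 PFU/cell, compounds at two doses. Luciferase measured 72 h post infection; normalized to buffer-only basal and Salinomycin (10uM) controls.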
On the % scale 0 is the no-effect control and ±100 the full control effect.

Compound	activity change, negative = inhibition
CCCCCNC(=O)C(C1CC1)n1c(=O)c(-c2ccccc2)nc2ccccc21 (stereo not drawn)	active: -68.9%
O=S(=O)(c1ccc(F)c(F)c1)N1CCCCCCC1	inactive: -22.3%
CCc1c(C)nc2cc(-c3ccc(OC)c(OC)c3)nn2c1N1CCCC1	inconclusive: -48.9%
O=C1NCCCc2c1oc1cc(Br)c(O)c(Br)c21	inconclusive: -59%
O=C(Nc1cccc(C(F)(F)F)c1)Nc1ccc(N2CCCC2)c(S(=O)(=O)Nc2ccccc2Cl)c1	active: -100%
COc1ccc(C(C(=O)NC2CCCCC2)N(C(=O)Cc2c[nH]c3ccccc23)c2ccc(NC(C)=O)cc2)cc1OC (stereo not drawn)	inactive: 57.9%
CCN(CCCNC(=O)c1ccc(N2CCCC2=O)cc1)c1cccc(C)c1	inconclusive: -42.3%
Nc1ccc(C(=O)Nc2cccc(N)c2)cc1	inactive: 15.9%
COc1ccccc1NC(=O)c1ccc([N+](=O)[O-])o1	active: -62.7%
Cc1ccccc1Cn1c(CN2CCC(C(=O)NCCN(C)C)CC2)cc2ccccc21	inconclusive: -40.2%
CCC1CCC(N2CCN(c3cccc(OC)c3)CC2)CC1 (stereo not drawn)	inconclusive: -41.1%
O=C(NCCSc1c(-c2ccccc2)[nH]c2ccccc12)c1ccc(S(=O)(=O)N2CCOCC2)cc1	inconclusive: -53.4%
COc1cc(/C=N/Nc2cccc3cccnc23)cc(OC)c1O	inactive: 7.04%
CC(=O)c1c2c3c(c(Br)ccc3n(C)c1=O)C(=O)c1ccccc1-2	inconclusive: -53.8%
CC(COc1ccc(/C=C/c2ccccc2)cc1)[N+](C)(C)C (stereo not drawn)	active: -96.5%
O=C1C(N2CCOCC2)=Cc2cccc3cccc1c23	inconclusive: -48.4%
O=C(CSc1nc(=O)n2ccccc2n1)N1N=C(c2cccs2)CC1c1ccc(F)cc1 (stereo not drawn)	inactive: -14.1%
C=CCN=C1NN=C(c2cc(C)n(CCOC)c2C)CS1	active: -96%
CN1CCc2c(sc3nc(NN)n(Cc4ccccc4)c(=O)c23)C1	inconclusive: -52.8%
COc1ccc(C(=O)N2CCN(Cc3ccc4c(c3)OCO4)CC2)cc1OC	inconclusive: -58.8%
CCc1cc[n+](/C(C(=S)Nc2cccc(C)c2)=C(/[O-])c2ccc(C)c([N+](=O)[O-])c2)cc1	inactive: 29%
COCc1cc(C)nc(SCC[N+](C)(C)CC(=O)Nc2cccc(C(F)(F)F)c2)c1C#N	inconclusive: -40.3%

Compound	activity change, negative = inhibition
CCn1c(-c2ccccc2)c(C(=O)CCl)c2ccccc21	active: -99.6%
COc1ccc(Cl)cc1NC(=O)c1ccc2c(c1)CCCN2S(C)(=O)=O	inconclusive: -47.6%
COc1ccc(/C=C(\C#N)C(=O)NCc2cccs2)cc1OC	inactive: 1.44%
CC1CC(C)(C)CC2(C1)NC(=O)N(CC(=O)NCc1ccccc1F)C2=O (stereo not drawn)	inconclusive: -43%
COc1ccc(C)cc1-n1c(SCC(=O)Nc2cc(C)on2)nc2sc(C)c(C)c2c1=O	inconclusive: -59.2%
COC(=O)c1nn(-c2ccc(OC)cc2)c(=O)cc1Sc1ccc(C)cc1	inconclusive: -44.8%
CC(C)C1=NN(C(=O)c2cccnc2)C(O)(C(F)(F)F)C1 (stereo not drawn)	inactive: -30.4%
CCc1ccc(S(=O)(=O)c2cn(CC)c3cc(N4CCOCC4)c(F)cc3c2=O)cc1	inactive: -5.06%
O=S(=O)(NCc1ccncc1)c1ccccc1	inconclusive: -44.4%
Cc1ccc(-n2nc(C(=O)O)c(O)cc2=O)cc1	inconclusive: -49.8%
CC(C)C[C@@H](CN1CCCC1CN1C(=S)NC[C@@H]1Cc1ccc(O)cc1)N1C[C@H](Cc2ccc(O)cc2)N(CC2CCCCCC2)C1=S (stereo partly drawn)	active: -90.5%
COc1cc(CC(=O)NCC2COc3ccccc3O2)cc(OC)c1OC (stereo not drawn)	inactive: 110%
Cc1ccc(C)c(S(=O)(=O)N2CCCCC2CCNC(=O)C(=O)NC2CCCC2)c1 (stereo not drawn)	inconclusive: -55.1%
CC(=O)Nc1ccc(S(=O)(=O)NCCS(=O)(=O)N2CCN(c3ccccc3F)CC2)cc1	inconclusive: -51.1%
COc1ccc(NC(=O)CN(C)S(=O)(=O)c2ccc(Br)s2)cc1	inconclusive: -50.4%
Fc1ccc(C2CCCN2Cc2nc(Cc3ccccc3F)no2)cc1 (stereo not drawn)	inconclusive: -49.6%
COc1ccccc1Nc1nc(-c2ccccc2O)nc2ccccc12	active: -69.5%
O=C(CCc1ccc(O)cc1)NNC(=S)NCCc1ccccc1	inconclusive: -47.8%
CC1CCC[C@H](O)CCCCCc2cc(O)cc(O)c2C(=O)O1 (stereo partly drawn)	inconclusive: -41.5%
COc1ccc(OC2CCN(S(=O)(=O)c3ccc(F)cc3)CC2)cc1	inactive: -17.7%
Cc1cc(C)c(S(=O)(=O)NCCc2csc3nc(-c4ccc(Cl)cc4)nn23)c(C)c1	active: -66.3%

Of the compounds above, seven contain two or more sulfur atoms:
Compound	activity change, negative = inhibition
O=C(NCCSc1c(-c2ccccc2)[nH]c2ccccc12)c1ccc(S(=O)(=O)N2CCOCC2)cc1	inconclusive: -53.4%
O=C(CSc1nc(=O)n2ccccc2n1)N1N=C(c2cccs2)CC1c1ccc(F)cc1 (stereo not drawn)	inactive: -14.1%
COc1ccc(C)cc1-n1c(SCC(=O)Nc2cc(C)on2)nc2sc(C)c(C)c2c1=O	inconclusive: -59.2%
CC(C)C[C@@H](CN1CCCC1CN1C(=S)NC[C@@H]1Cc1ccc(O)cc1)N1C[C@H](Cc2ccc(O)cc2)N(CC2CCCCCC2)C1=S (stereo partly drawn)	active: -90.5%
CC(=O)Nc1ccc(S(=O)(=O)NCCS(=O)(=O)N2CCN(c3ccccc3F)CC2)cc1	inconclusive: -51.1%
COc1ccc(NC(=O)CN(C)S(=O)(=O)c2ccc(Br)s2)cc1	inconclusive: -50.4%
Cc1cc(C)c(S(=O)(=O)NCCc2csc3nc(-c4ccc(Cl)cc4)nn23)c(C)c1	active: -66.3%
